The nature of this test: qHTS Assay for Lipid Storage Modulators in Drosophila S3 Cells.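 On cell number change: cells counted by Cell Tracker Red CMTPX staining in the red channel.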 The settings on record: BODIPY lipid droplet fluorescence, 18-24 h; for cell number change: measured here: cell count max response, cells fed with added oleic acid. An outline of the steps: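 Laser-scanning cytometry quantifies lipid droplet accumulation (500–530 nm total intensity; droplet/cell object ratio) in oleic acid-fed (400 uM added) Drosophila S3 cells treated with a concentration series. 20 uM Triacsin C defined 100% inhibition.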

[1] abbreviates: measured here: lipid fluorescence (Fed channel) AC50, cells fed with added oleic acid.
Where [2] appears, read: measured here: cell number channel AC50, cells fed with added oleic acid.

The other results are listed elsewhere or left out. These are further read-outs of the screen, such as a control signal, another cell line or another target. No call is given for them. Most of these compounds were active or inconclusive in the main read-out, so they are no random draw. Potencies come from curve fits of mixed quality, noted in brackets.

Broadly, the AC50 is the midpoint of the concentration-response curve, whichever way the signal moves. Read a high AC50 as activity only at high concentration. Take `Cc1ccc(-c2noc(CN3CCN(C(c4ccccc4)c4ccccc4)CC3)n2)cc1`: the cell number change is -14.4%. Besides, the AC50 under setting [1] was 1.64 µM [falling, partial curve].
On to `CN(Cc1ccccc1)C(=O)CN1C(=O)NC(C)(c2ccc(Cl)cc2)C1=O` (stereo not given), for which the cell number change was 14.9%.
For the compound `CCC(Oc1ccccc1)C(=O)N1CCN(CC)CC1` (stereo not given), the cell number change was -53.7%. The AC50 under setting [2] is 11.6 µM [falling, partial curve]. For the same compound, the AC50 under setting [1] is 29.1 µM [falling, single point].
For the compound `O=C(c1cc2ccccc2o1)N1CCN(c2cccc(Cl)c2)CC1`, the half-maximal activity concentration (AC50) under setting [1] is 7.31 µM [rising, partial curve, poor fit].
For the compound `Nc1nc(SCC(=O)Nc2ccc([N+](=O)[O-])cc2Br)n[nH]1`, the cell number change was 17.2%. Besides, under setting [1], the AC50 is 3.26 µM [rising, partial curve, poor fit].
For the compound `Cc1cccc2cc(C3CC(c4ccco4)=NN3C(=O)CCC(=O)O)c(Cl)nc12` (stereo not given), the cell number change was -16.8%. For the same compound, the AC50 under setting [2] is 0.146 µM [falling, full curve, poor fit]. Further, under setting [1], the AC50 was 0.103 µM [falling, full curve, poor fit].
On to `CCOc1ccc(NC(=O)COc2ccc3c(c2)OCO3)cc1`, for which the cell number change worked out at 16.5%.
As for `COc1ccc(NC(=O)CSCC(=O)Nc2nnc(CC(C)C)s2)cc1`, under setting [1], the AC50 was 23.1 µM [rising, single point].
`Cc1c(Br)c([N+](=O)[O-])nn1CC(=O)Nc1ccccn1`: the cell number change was -30.3%.
The same measure, in the same setting: the value for `Cc1cccc(C(=O)OCC(=O)NCCNC(=O)COC(=O)c2cccc(C)c2C)c1C` was 18.4%.
With `C#CCOCCOCCOCCNc1nc(N2CCN(C(=O)[C@H]([C@@H](C)O)n3cc(CCCCN)nn3)CC2)nc(N2CCN(C(=O)[C@H](CCCCN)n3cc(CC(C)O)nn3)CC2)n1` (stereo not given in full), the cell number change was -18.8%. Besides, under setting [1], the AC50 was 0.116 µM [falling, full curve, poor fit].
As to `Cc1ccc(Sc2nc3c(c(=O)[nH]c(=O)n3C)n2CCc2ccccc2)cc1`, the cell number change was found to be 29.3%. Besides, under setting [1], the half-maximal activity concentration (AC50) was 7.31 µM [rising, partial curve].
For `COc1ccc(-n2nc3c(N4CCC(C(=O)NCC(C)c5ccccc5)CC4)nnc(C)c3c2C)cc1` (stereo not given), the cell number change turned out to be 0.763%. Under setting [2], the AC50 was 6.51 µM [rising, single point]. Under setting [1], the concentration at half-maximal activity (AC50) is 2.31 µM [rising, partial curve].
In the case of `CCOC(=O)c1sc2nc(C)nc(NCc3ccc(Cl)cc3)c2c1C`, the cell number change turned out to be 97.2%. Further, the AC50 under setting [2] is 29.1 µM [rising, single point]. In addition, the half-maximal activity concentration (AC50) under setting [1] is 29.1 µM [rising, single point].
As to `N#Cc1ccc(CSc2nnc(-c3c[nH]c4ccccc34)n2-c2ccccc2)cc1`, the cell number change was 137%. Under setting [2], the AC50 is 2.59 µM [falling, single point]. The AC50 under setting [1] is 0.731 µM [falling, partial curve].
For `CC(/C=N/n1c(COc2ccccc2)n[nH]c1=S)=C\c1ccccc1`, the cell number change is -50.6%. In addition, the AC50 under setting [2] is 10.3 µM [falling, partial curve]. The AC50 under setting [1] was 18.4 µM [falling, single point].
Consider `CCCS(=O)(=O)N1CCC(C(=O)NCCc2ccccc2)CC1`, for which the cell number change turned out to be 15%. Besides, the AC50 under setting [1] is 6.51 µM [falling, single point].
Take `CC(=O)/C(=N\Nc1ccc(Cl)cc1Cl)Sc1cccc2cccnc12`: the cell number change is -14%.
Consider `O=C(COC(=O)COc1ccc2ccccc2c1)NC1CCCc2ccccc21` (stereo not given), for which the cell number change was -33%. In addition, the AC50 under setting [2] was 6.51 µM [falling, partial curve, poor fit]. Besides, the AC50 under setting [1] was 5.17 µM [falling, partial curve, poor fit].
As to `CCOC(=O)Cn1c(=O)oc2cc(S(=O)(=O)Nc3c(C)cc(C)cc3C)ccc21`, the cell number change turned out to be 45.3%. The AC50 under setting [2] was 0.092 µM [rising, full curve]. The AC50 under setting [1] is 0.116 µM [rising, full curve, poor fit].
Take `CC(C)CN(C(=O)c1ccc(N2CCCC2=O)cc1)c1c(N)n(Cc2ccccc2)c(=O)[nH]c1=O`: the cell number change was -10.1%. The AC50 under setting [1] is 2.31 µM [falling, single point].
Take `COc1ccc(C(CNC(=O)c2ccc(OCc3ccccc3)cc2)N2CCOCC2)cc1` (stereo not given): the cell number change was 41%. In addition, the AC50 under setting [2] was 3.26 µM [rising, partial curve]. The AC50 under setting [1] was 10.3 µM [rising, partial curve].
Regarding `Cc1[nH]n(-c2ccccc2)c(=O)c1C=NCc1ccco1`, the cell number change was determined as 15.3%. Moreover, under setting [2], the AC50 was 0.146 µM [falling, full curve, poor fit]. The concentration at half-maximal activity (AC50) under setting [1] was 0.13 µM [falling, full curve, poor fit].
With `COc1ccc(Cl)cc1N1CC(C(=O)Nc2nccs2)CC1=O` (stereo not given), the cell number change is -0.807%. For the same compound, under setting [1], the AC50 is 1.03 µM [falling, full curve, poor fit].
For `O=C(Nc1ccc(S(=O)(=O)Nc2ncccn2)cc1)c1cccc(Br)c1`, the cell number change was -6.59%.
For the compound `Cc1ccc(N(C(=O)CNC(=O)c2ccco2)C(C(=O)NC2CCCC2)c2ccncc2)cc1C` (stereo not given), the cell number change was determined as 21%. Moreover, the half-maximal activity concentration (AC50) under setting [1] is 29.1 µM [falling, single point].
For the compound `COc1ccc(NC(=S)Nc2cccc(S(=O)(=O)N3CCCCC3)c2)cc1`, the cell number change is -32.9%. For the same compound, the AC50 under setting [2] was 29.1 µM [falling, single point]. Moreover, the AC50 under setting [1] is 29.1 µM [falling, single point].
Turning to `Fc1ccc(C2=Nn3c(Cc4ccccc4)nnc3SC2)cc1`, the cell number change was -27.9%. Further, the AC50 under setting [1] is 6.51 µM [falling, full curve].
Regarding `CN=C1SC(CC(=O)Nc2ccccc2F)C(=O)N1/N=C/c1ccc(O)c(OC)c1` (stereo not given), the cell number change is -61.6%. Also, the AC50 under setting [2] is 29.1 µM [falling, single point].
`COc1cc(NC(=O)[C@@H](NC(=O)N2CCn3c2nc2ccccc23)C(C)C)cc(OC)c1`: the cell number change was -4.48%.
Turning to `O=C(Cc1cccs1)N1CCN(S(=O)(=O)c2cc(Cl)ccc2Cl)CC1`, the AC50 runs as follows: under setting [2], 0.58 µM [falling, single point]; under setting [1], 1.03 µM [rising, full curve, poor fit].
Regarding `COc1ccc(CN2CCC(=O)N([C@H](CO)Cc3ccccc3)CC2)cc1OC`, the cell number change was 9.28%. Moreover, under setting [1], the AC50 was 4.11 µM [falling, partial curve].
Turning to `N#Cc1c(N)oc(-c2ccc3c(c2)OCO3)c1-c1ccc2c(c1)OCO2`, the cell number change is 60.4%. For the same compound, under setting [2], the AC50 was 0.146 µM [rising, full curve].
On to `CC(C)(C)OC(=O)N1CCC(Cc2cc(-c3cccnc3)no2)(C(=O)O)CC1`, for which the cell number change was -16.1%. Further, the AC50 under setting [1] is 6.51 µM [rising, single point].

Source of the values: PubChem BioAssay AID2685 (National Center for Advancing Translational Sciences (NCATS), 2010).
